For at least one entry, the source does not settle the construct or the ends of the probe.
System: N.BstNBI nicking endonuclease
Experiment: enzyme reaction in vitro
Settings: purified recombinant protein, protein details: NEB

| Sequence | activity on this sequence (5'-amino (hexyl-amine, immobilized on PEI-coated tip), immobilized template, product m/z 1246 detected) | activity on this sequence (nicked product A2 detected by mass spectrometry, no product without TOP1, 60 C) |
| --- | --- | --- |
| CCTACGACTGGAACAGACTCACCTACGACTGGA (double strand) [Example 3 immobilized T2 duplex] | active | – |
| TTCCAGTCGTAGGTGAGTCGATGTTCCAGTCGTAGGT (double strand) [H2 duplex (Example 1, A2-extended T2)] | – | active |

— patent US20030138800
